Experiment [1] concerns the target HA-tagged nonphosphorylatable MEF2 (T20A), inducibly expressed in the fly fat body (Drosophila) (UniProt P40791). Briefly: co-IP; fat-body-expressed MEF2*.HA precipitated with anti-HA (16B12) from whole-fly lysates, blot for endogenous TBP; flies 3 hr after mixed E. coli and M. luteus infection.
In experiment [2] the target is HA-tagged phosphomimetic MEF2 (T20E), inducibly expressed in the fly fat body (Drosophila) (UniProt P40791). The experiment is described as above.
In experiment [3] the target is HA-tagged nonphosphorylatable MEF2 (T20A), inducibly expressed in the fly fat body (Drosophila) (UniProt P40791). Briefly: co-IP; fat-body-expressed MEF2*.HA precipitated with anti-HA (16B12) from whole-fly lysates, blot for endogenous TBP; uninfected flies.
The target of experiment [4] is HA-tagged phosphomimetic MEF2 (T20E), inducibly expressed in the fly fat body (Drosophila) (UniProt P40791). The description is as above.

Sequences of proteins named here, by UniProt entry; tags and fusion partners are left off. A change or cut given only in a name is not applied to a line headed by its entry.
UniProt P40791: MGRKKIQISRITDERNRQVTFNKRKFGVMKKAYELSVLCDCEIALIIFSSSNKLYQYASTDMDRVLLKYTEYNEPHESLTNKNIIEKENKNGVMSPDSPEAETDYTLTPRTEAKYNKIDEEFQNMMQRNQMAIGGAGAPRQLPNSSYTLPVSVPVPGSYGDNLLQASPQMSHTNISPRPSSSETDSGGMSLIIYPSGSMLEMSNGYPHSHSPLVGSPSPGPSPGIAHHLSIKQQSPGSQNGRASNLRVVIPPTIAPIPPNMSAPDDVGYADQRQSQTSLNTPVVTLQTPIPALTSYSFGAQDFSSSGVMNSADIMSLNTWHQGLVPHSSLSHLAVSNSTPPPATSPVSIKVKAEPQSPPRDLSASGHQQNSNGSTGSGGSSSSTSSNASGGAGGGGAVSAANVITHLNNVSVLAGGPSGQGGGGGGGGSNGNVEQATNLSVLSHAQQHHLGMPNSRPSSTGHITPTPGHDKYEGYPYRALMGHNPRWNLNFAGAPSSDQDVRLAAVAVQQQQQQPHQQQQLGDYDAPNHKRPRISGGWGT

No constants are given. Whether binding was seen depends on the method and setting. Binding seen in cells or lysates may run through a third protein. For some of these results: Binding calls can cover weak binding; strength is not graded here.

B1: TATA binding protein (TBP), endogenous Drosophila (protein, UniProt P20227 1-353)
chain: MDQMLSPNFSIPSIGTPLHQMEADQQIVANPVYHPPAVSQPDSLMPAPGSSSVQHQQQQQQSDASGGSGLFGHEPSLPLAHKQMQSYQPSASYQQQQQQQQLQSQAPGGGGSTPQSMMQPQTPQSMMAHMMPMSERSVGGSGAGGGGDALSNIHQTMGPSTPMTPATPGSADPGIVPQLQNIVSTVNLCCKLDLKKIALHARNAEYNPKRFAAVIMRIREPRTTALIFSSGKMVCTGAKSEDDSRLAARKYARIIQKLGFPAKFLDFKIQNMVGSCDVKFPIRLEGLVLTHCNFSSYEPELFPGLIYRMVRPRIVLLIFVSGKVVLTGAKVRQEIYDAFDKIFPILKKFKKQS
On to B1, for which the binding result in experiment [1] is recorded as “binds”; in experiment [2] it was “no binding”; in experiment [3], “binds”; in experiment [4], “no binding”.

The values above are taken from publication PMC3807682.
